According to publication PMC4140772:
Results are given in words; binding and its absence hold for the method and conditions named. In cells and extracts the contact can be indirect. Some entries that bind do so weakly or less than the wild type.

Amino acid sequences for entries named in this document (tags omitted).
UniProt O15379: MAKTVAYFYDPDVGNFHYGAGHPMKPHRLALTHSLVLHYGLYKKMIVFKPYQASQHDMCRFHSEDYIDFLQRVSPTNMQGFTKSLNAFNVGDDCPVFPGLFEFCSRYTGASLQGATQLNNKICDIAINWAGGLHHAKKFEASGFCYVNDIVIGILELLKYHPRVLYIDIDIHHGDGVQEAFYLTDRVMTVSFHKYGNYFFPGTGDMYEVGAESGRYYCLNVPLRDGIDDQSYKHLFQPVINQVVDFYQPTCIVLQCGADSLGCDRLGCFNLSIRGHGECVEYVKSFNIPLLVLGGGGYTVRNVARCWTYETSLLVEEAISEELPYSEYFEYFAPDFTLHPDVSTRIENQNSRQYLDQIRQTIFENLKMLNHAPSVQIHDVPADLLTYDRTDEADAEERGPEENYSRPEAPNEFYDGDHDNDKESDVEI
UniProt P53805: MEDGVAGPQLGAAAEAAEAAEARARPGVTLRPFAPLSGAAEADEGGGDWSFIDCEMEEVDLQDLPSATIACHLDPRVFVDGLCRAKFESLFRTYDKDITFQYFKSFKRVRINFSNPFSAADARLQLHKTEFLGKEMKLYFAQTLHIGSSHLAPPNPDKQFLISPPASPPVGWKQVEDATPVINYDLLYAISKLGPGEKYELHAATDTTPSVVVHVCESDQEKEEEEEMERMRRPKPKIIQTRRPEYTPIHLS

How the values were obtained:
[1] = target: endogenous HDAC3 (human (endogenous in HEK293)) (UniProt O15379); assay: co-IP; untransfected HEK293 lysates immunoprecipitated with anti-RCAN1 or anti-HDAC3 antibodies or normal rabbit IgG, blotted with anti-HDAC3 and anti-RCAN1
[2] = target: endogenous RCAN1 (human (endogenous in HEK293)) (UniProt P53805); assay: as above

binding [1]	binding [2]	Substance
binds	–	endogenous RCAN1 (from UniProt P53805 1-252)
–	binds	endogenous HDAC3 (from UniProt O15379 1-428) (enzyme)
